Eight molecules from doi:10.1101/2024.09.30.615192 can be followed below.

Sequences of proteins named here, by UniProt entry; tags and fusion partners are left off.
UniProt Q9NZJ7: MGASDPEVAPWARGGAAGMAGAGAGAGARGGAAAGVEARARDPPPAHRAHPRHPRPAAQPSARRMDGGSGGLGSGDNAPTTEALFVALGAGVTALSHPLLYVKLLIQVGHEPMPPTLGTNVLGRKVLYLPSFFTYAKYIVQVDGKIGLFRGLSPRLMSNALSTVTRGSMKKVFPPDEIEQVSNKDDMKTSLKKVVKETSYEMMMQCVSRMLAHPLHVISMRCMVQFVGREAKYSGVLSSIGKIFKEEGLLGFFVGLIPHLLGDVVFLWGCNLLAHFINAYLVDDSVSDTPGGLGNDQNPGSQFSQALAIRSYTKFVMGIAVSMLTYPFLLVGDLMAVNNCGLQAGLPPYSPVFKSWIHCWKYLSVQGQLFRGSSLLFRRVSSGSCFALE
UniProt Q9UKB1: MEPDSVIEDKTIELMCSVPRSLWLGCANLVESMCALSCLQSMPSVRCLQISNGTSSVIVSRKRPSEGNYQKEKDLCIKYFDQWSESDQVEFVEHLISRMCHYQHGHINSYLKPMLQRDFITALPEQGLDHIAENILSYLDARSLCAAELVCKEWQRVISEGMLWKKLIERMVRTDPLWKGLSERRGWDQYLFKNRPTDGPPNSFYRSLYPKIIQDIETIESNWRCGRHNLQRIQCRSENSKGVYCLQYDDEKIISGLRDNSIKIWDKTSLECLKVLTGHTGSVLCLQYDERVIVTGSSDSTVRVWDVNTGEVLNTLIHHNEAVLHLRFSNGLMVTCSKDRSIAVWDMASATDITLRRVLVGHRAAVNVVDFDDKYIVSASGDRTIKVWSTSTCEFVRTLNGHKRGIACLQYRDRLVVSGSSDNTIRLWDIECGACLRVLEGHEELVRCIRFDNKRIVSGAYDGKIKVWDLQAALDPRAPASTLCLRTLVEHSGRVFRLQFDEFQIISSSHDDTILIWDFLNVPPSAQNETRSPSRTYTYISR
UniProt Q969V5: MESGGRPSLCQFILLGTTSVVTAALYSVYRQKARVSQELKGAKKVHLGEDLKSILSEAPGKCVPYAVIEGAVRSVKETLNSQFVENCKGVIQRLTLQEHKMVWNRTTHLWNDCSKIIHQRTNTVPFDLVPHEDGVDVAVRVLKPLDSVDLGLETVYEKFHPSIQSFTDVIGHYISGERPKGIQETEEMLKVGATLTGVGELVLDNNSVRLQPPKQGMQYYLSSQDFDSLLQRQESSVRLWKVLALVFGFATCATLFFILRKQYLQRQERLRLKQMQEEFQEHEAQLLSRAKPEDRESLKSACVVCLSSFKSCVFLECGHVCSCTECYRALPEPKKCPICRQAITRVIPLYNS
UniProt Q9Y297: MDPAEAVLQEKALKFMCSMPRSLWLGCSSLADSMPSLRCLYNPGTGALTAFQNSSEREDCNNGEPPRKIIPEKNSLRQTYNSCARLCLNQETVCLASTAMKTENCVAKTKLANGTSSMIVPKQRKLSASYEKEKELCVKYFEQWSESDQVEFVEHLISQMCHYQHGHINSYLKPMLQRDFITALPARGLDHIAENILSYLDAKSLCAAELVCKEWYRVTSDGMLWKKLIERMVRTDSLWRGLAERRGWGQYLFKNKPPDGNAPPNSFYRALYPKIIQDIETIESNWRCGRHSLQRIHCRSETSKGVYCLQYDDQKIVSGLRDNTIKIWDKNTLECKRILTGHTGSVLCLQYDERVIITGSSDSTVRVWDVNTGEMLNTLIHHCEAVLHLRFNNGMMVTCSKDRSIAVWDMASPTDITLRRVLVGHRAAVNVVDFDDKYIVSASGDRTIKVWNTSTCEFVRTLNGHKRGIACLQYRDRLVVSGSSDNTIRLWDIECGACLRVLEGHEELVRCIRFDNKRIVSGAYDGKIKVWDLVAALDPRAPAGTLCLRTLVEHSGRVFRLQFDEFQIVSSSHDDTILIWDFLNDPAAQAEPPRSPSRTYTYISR
UniProt Q70CQ3: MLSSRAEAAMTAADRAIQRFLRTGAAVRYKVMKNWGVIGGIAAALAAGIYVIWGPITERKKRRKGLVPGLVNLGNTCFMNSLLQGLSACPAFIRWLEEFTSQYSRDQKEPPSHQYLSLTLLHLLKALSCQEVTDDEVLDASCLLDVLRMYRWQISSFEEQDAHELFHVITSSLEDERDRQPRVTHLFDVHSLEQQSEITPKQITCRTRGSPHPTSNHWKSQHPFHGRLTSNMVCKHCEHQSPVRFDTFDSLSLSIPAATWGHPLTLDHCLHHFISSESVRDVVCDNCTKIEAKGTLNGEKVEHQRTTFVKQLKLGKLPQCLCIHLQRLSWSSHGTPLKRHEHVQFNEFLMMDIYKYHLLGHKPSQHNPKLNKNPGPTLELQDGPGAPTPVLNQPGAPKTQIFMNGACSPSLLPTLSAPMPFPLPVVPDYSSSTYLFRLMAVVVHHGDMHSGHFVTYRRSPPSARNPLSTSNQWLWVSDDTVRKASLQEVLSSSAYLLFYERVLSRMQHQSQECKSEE

What all share (assay): affinity purification with mass spectrometry
Assay [1] has as its target T1, SLC16A6 (human) (UniProt O15403).
T1 sequence: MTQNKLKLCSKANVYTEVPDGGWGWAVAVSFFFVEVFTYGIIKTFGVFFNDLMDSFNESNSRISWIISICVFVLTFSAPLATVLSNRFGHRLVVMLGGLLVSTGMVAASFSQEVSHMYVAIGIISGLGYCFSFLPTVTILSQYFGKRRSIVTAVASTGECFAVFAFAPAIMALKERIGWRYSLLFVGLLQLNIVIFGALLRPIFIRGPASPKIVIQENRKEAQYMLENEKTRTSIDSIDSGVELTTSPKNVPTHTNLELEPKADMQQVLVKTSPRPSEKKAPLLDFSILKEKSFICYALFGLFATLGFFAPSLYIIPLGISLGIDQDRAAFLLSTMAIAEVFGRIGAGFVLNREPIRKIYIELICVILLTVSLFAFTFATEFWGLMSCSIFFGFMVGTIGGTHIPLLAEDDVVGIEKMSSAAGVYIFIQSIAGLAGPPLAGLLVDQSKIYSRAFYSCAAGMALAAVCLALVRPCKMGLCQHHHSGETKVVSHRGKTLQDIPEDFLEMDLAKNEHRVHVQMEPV

For assay [2], the target named is T2, SLC16A6 T245E (human) (UniProt O15403).
T2 sequence: T1 sequence with T245E

The target of assay [3] is T3, MTCH2 (human) (UniProt Q9Y6C9).
T3 sequence: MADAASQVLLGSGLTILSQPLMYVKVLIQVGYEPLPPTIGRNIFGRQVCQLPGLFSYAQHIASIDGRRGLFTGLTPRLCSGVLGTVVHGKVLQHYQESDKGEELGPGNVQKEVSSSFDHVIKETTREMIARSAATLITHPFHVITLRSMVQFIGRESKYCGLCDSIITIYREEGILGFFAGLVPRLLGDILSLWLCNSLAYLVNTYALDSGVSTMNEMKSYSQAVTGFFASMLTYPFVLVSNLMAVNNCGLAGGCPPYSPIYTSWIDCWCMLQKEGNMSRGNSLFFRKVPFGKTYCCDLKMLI

The target of assay [4] is MTCH1 (human) (UniProt Q9NZJ7).
Assay [5] addresses T4, SLC39A8 (human) (UniProt Q9C0K1).
T4 sequence: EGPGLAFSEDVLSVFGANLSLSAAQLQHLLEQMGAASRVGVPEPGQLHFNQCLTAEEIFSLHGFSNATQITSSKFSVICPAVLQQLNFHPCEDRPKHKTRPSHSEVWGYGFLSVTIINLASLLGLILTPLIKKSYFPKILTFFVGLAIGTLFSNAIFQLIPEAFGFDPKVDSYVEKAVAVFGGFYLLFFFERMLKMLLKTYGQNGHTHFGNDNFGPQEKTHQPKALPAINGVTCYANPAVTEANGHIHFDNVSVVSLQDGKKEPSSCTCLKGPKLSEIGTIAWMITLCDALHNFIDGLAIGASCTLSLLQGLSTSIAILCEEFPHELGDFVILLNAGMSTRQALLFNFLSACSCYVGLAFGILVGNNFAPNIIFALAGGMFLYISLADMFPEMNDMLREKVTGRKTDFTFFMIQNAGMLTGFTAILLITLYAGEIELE

In assay [6] the target is SLC43A2 (human) (UniProt Q8N370).

Where a chain is given by its changes, count along the chain named. Results are given in words; binding and its absence hold for the method and conditions named. In cells and extracts the contact can be indirect. Here binding means that the protein was enriched with, or labelled near, the bait; the list need not be complete.

Turning to FBXW11 (from UniProt Q9UKB1 1-542), the binding entry in assay [1] and in assay [2] was “binds” throughout.

Turning to “mitochondrial ubiquitin ligase activator of NFKB1 (from UniProt Q969V5 1-352)”, the binding result in assay [3] and in assay [4] was “binds” each time.

Take BTRC (from UniProt Q9Y297 1-605): the binding result in assay [1] and in assay [2] was “binds” throughout.

Regarding “Ubiquitin carboxyl-terminal hydrolase 30 (from UniProt Q70CQ3 1-517)”, the binding result in assay [3] and in assay [4] was “binds” each time.

B1: sorting nexin 25 (protein, UniProt Q9H3E2 1-840)
chain: MDKALKEVFDYSYRDYILSWYGNLSRDEGQLYHLLLEDFWEIARQLHHRLSHVDVVKVVCNDVVRTLLTHFCDLKAANARHEEQPRPFVLHACLRNSDDEVRFLQTCSRVLVFCLLPSKDVQSLSLRIMLAEILTTKVLKPVVELLSNPDYINQMLLAQLAYREQMNEHHKRAYTYAPSYEDFIKLINSNSDVEFLKQLRYQIVVEIIQATTISSFPQLKRHKGKETAAMKADLLRARNMKRYINQLTVAKKQCEKRIRILGGPAYDQQEDGALDEGEGPQSQKILQFEDILANTFYREHFGMYMERMDKRALISFWESVEHLKNANKNEIPQLVGEIYQNFFVESKEISVEKSLYKEIQQCLVGNKGIEVFYKIQEDVYETLKDRYYPSFIVSDLYEKLLIKEEEKHASQMISNKDEMGPRDEAGEEAVDDGTNQINEQASFAVNKLRELNEKLEYKRQALNSIQNAPKPDKKIVSKLKDEIILIEKERTDLQLHMARTDWWCENLGMWKASITSGEVTEENGEQLPCYFVMVSLQEVGGVETKNWTVPRRLSEFQNLHRKLSECVPSLKKVQLPSLSKLPFKSIDQKFMEKSKNQLNKFLQNLLSDERLCQSEALYAFLSPSPDYLKVIDVQGKKNSFSLSSFLERLPRDFFSHQEEETEEDSDLSDYGDDVDGRKDALAEPCFMLIGEIFELRGMFKWVRRTLIALVQVTFGRTINKQIRDTVSWIFSEQMLVYYINIFRDAFWPNGKLAPPTTIRSKEQSQETKQRAQQKLLENIPDMLQSLVGQQNARHGIIKIFNALQETRANKHLLYALMELLLIELCPELRVHLDQLKAGQV
On to B1, for which the binding entry in assay [5] is recorded as “binds”.

B2: NFXL1 (protein, UniProt Q6ZNB6 1-911)
chain: MEASWRQVAGGRGRSRGRATAAPSGNGVHLRGAGGGREKGSVGAVPSGTSPGGVATTAAAGSRHSPAGSQALQTTAASELMSQKKFEEIKKANQAAARKLVEEQFSSSSEEGDEDFEGKQGKILANTFITYTTQTDGDTRELERTKQYVNEAFQAGAMTCLICIASVKRNQAVWSCSGCFCIFHMPCIQKWAKDSQFLVSSVTDDDFGKKDCPWPCPKCRFEYKRSETPSRYYCYCGKVEDPPLDPWLVPHSCGQVCEREFKPPCGHKCLLLCHPGPCPPCPKMVTTTCYCKKAKPIPRRCSAKEWSCQLPCGQKLLCGQHKCENPCHAGSCQPCPRVSRQKCVCGKKVAERSCASPLWHCDQVCGKTLPCGNHTCEQVCHVGACGECPRSGKRFCPCQKSKFSLPCTEDVPTCGDSCDKVLECGIHRCSQRCHRGPCETCRQEVEKHCRCGKHTKRMPCHKPYLCETKCVKMRDCQKHQCRRKCCPGNCPPCDQNCGRTLGCRNHKCPSVCHRGSCYPCPETVDVKCNCGNTKVTVPCGRERTTRPPKCKEQCSRPPTCHHTSQEKHRCHFGSCPPCHQPCQKVLEKCGHLCPAPCHDQALIKQTGRHQPTGPWEQPSEPAFIQTALPCPPCQVPIPMECLGKHEVSPLPCHAVGPYSCKRVCGRILDCQNHTCMKECHKVTKTDGCTGKNKAGPECLHCEEGCSKSRPLGCLHPCILRCHPGECPPCVQMLRIKCHCKITSLYVECRKITTADVNEKNLLSCCKNQCPKELPCGHRCKEMCHPGECPFNCNQKVKLRCPCKRIKKELQCNKVRENQVSIECDTTCKEMKRKASEIKEAEAKAALEEEKRRQQAELEAFENRLKGRRKKNRKRDEVAVELSLWQKHKYYLISVCGVVVVVFAWYITHDVN
As for B2, the binding entry in assay [5] was “binds”.

B3: GOLM1 (protein, UniProt Q8NBJ4 1-401)
chain: MMGLGNGRRSMKSPPLVLAALVACIIVLGFNYWIASSRSVDLQTRIMELEGRVRRAAAERGAVELKKNEFQGELEKQREQLDKIQSSHNFQLESVNKLYQDEKAVLVNNITTGERLIRVLQDQLKTLQRNYGRLQQDVLQFQKNQTNLERKFSYDLSQCINQMKEVKEQCEERIEEVTKKGNEAVASRDLSENNDQRQQLQALSEPQPRLQAAGLPHTEVPQGKGNVLGNSKSQTPAPSSEVVLDSKRQVEKEETNEIQVVNEEPQRDRLPQEPGREQVVEDRPVGGRGFGGAGELGQTPQVQAALSVSQENPEMEGPERDQLVIPDGQEEEQEAAGEGRNQQKLRGEDDYNMDENEAESETDKQAALAGNDRNIDVFNVEDQKRDTINLLDQREKRNHTL
B3: in assay [5], the binding entry was “binds”.

B4: LIN7C (protein, UniProt Q9NUP9 1-197)
chain: MAALGEPVRLERDICRAIELLEKLQRSGEVPPQKLQALQRVLQSEFCNAVREVYEHVYETVDISSSPEVRANATAKATVAAFAASEGHSHPRVVELPKTEEGLGFNIMGGKEQNSPIYISRIIPGGIADRHGGLKRGDQLLSVNGVSVEGEHHEKAVELLKAAQGKVKLVVRYTPKVLEEMESRFEKMRSAKRRQQT
With B4, in assay [6], the binding entry was “binds”.
